These are yes or no findings as the source states them, for the method shown.
Biological target: Mini-B (human)
Test: SDS-PAGE; 4 µg peptide in 8 µl buffer (50 mM MOPS, 50 mM Tris, pH 7.7, 0.1% SDS, 1 mM EDTA), neither heated nor reduced; 16% acrylamide gel; Coomassie blue and silver staining; molecular weight markers 2.5-16.9 kDa; both purified

B1: Mini-B (peptide)
chain: CWLCRALIKRIQAMIPKGGRMLPQLVCRLVLRCS
notes: surfactant protein B (SP-B), human, residues 8-25 (N-terminal helix region); numbers count on: the mature protein (79 residues); surfactant protein B (SP-B), human, residues 63-78 (C-terminal helix region); Oxidised form with intramolecular disulfides Cys-8 to Cys-40 and Cys-11 to Cys-34 (S-MB numbering); also called MB; source: synthetic peptide (Fmoc solid phase, HPLC-purified, air-oxidised)
binding: no binding (tested: 4 µg peptide in 8 µl buffer)

Source: publication PMC2805716, “Critical Structural and Functional Roles for the N-Terminal Insertion Sequence in Surfactant Protein B Analogs” (PLoS ONE, 2010)
